PubChem BioAssay AID1259425, University of Nebraska Medical Center – 2018

- Assay: 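Seek colon cancer weak points whose silencing resembles KSR1 loss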 (primary screen)
- Cells: HCT116 human colon cancer cells
- Knock-down reagent: siRNA pool against human genes, 50 nM siRNA
- Detection: 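After 50 nM siRNA pool, branched-DNA assay measures six marker transcripts per well, minus blank, normalised to the geometric mean of two housekeeping transcripts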
- Direction: BNIP3L mRNA: higher = more BNIP3L transcript after knockdown; NDRG1 mRNA: higher = more NDRG1 transcript after knockdown; BNIP3 mRNA: higher = more BNIP3 transcript after knockdown
This is one part, drawn at random, of about 14,000 deposited reagents. Not all columns of the deposit are shown. Not stated in the record: the time to read-out.

The first 7 records, to show the layout:
gene knocked down,"BNIP3L mRNA, set 1","NDRG1 mRNA, set 1","BNIP3 mRNA, set 1"
GULP1,0.0798,0.0808,0.27
SMARCA1,0.168,0.212,0.374
NEDD4,0.0745,0.154,0.216
RBMY1A1,0.124,0.141,0.338
SPDL1,0.118,0.162,0.337
BLOC1S1,0.157,0.163,0.534
TARBP1,0.066,0.121,0.274

Main list, from the first entry:
gene knocked down,"BNIP3L mRNA, set 1","NDRG1 mRNA, set 1","BNIP3 mRNA, set 1"
GULP1,0.0798,0.0808,0.27
SMARCA1,0.168,0.212,0.374
NEDD4,0.0745,0.154,0.216
RBMY1A1,0.124,0.141,0.338
SPDL1,0.118,0.162,0.337
BLOC1S1,0.157,0.163,0.534
TARBP1,0.066,0.121,0.274
EIF3I,0.127,0.0891,0.357
PLA2G1B,0.12,0.147,0.232
GHSR,0.179,0.93,0.447
HSD17B8,0.123,0.0582,0.293
ZNF385A,0.165,0.129,0.526
VNN1,0.0989,0.221,0.267
RAB38,0.158,0.535,0.395
HTR6,0.232,0.262,0.332
NUDT5,0.14,0.245,0.381
CCNI,0.203,0.133,0.169
CLIP1,0.101,0.0868,0.211
HMGN5,0.142,0.234,0.443
TNFRSF10B,0.187,0.196,0.303
SLCO2A1,0.177,0.213,0.326
GDI1,0.0916,0.295,0.262
ZNF460,0.11,0.25,0.294
LIMD1,0.0497,0.065,0.217
EHBP1,0.209,0.443,0.423
OVCA2,0.0499,0.242,0.23
VAMP2,0.312,0.464,0.441
NINJ1,0.155,0.22,0.349
NAT8,0.119,0.163,0.235
KIF1C,0.19,0.199,0.21
COL27A1,0.13,0.488,0.254
SPACA1,0.066,0.215,0.223
TTN,0.0904,0.0408,0.311
FXYD4,0.0942,0.1,0.238
IL6R,0.141,0.128,0.289
GPR137B,0.117,0.252,0.345
YIPF2,0.213,0.31,0.344
FAM120A,0.041,0.216,0.236
MAP2K6,0.209,0.0433,0.448
KLHL7,0.073,0.165,0.252
MXRA8,0.167,0.745,0.198
ART3,0.165,0.401,0.488
TRIM17,0.196,0.45,0.49
CCNA1,0.11,0.142,0.243
MINDY1,0.0793,1.32,0.486
PNPO,0.0695,0.249,0.358
ZFP69B,0.132,0.12,0.314
LDLRAD4,0.0739,0.394,0.235
ECHDC1,0.127,0.325,0.366
MUL1,0.166,0.24,0.355
TIMP4,0.0896,0.0898,0.28
LRP5,0.0492,0.202,0.247
LRP1B,0.0786,0.198,0.298
GPX3,0.159,0.203,0.227
AK2,0.0715,0.217,0.269
BRMS1,0.26,0.884,0.602
APOL4,0.315,0.245,0.532
SERPINB10,0.12,0.289,0.226
KDM3B,0.135,0.44,0.4
C4BPB,0.19,0.224,0.315
KCNK3,0.13,0.988,0.327
GLRA3,0.0823,0.101,0.211
ORC6,0.0971,0.0946,0.372
